Out of some 220,000 compounds screened, about 2,400 (1.1%) were called active. The shares of active, inactive and inconclusive entries below differ from those in the screen. The call rests on the fitted dose curve; in most records, active means well fitted inhibition curve with a large enough effect; inconclusive means small, poorly fitted or top-dose-only effect, or effect the other way; inactive means no such curve, though single readings can be large or run the other way. Where the call is inconclusive, the potency comes from a doubtful curve fit.
Assay: qHTS Multiplex Assay to Identify Dual Action Probes in a Cell Model of Huntington: Aggregate Formation (GFP); further: nearly all actives have a fitted effect of over 60% in size
Conditions: PC12 HttQ103-GFP aggregates, Acumen cytometry, 40 h; activity change, negative = inhibition: at 46.1 µM (top of the series)
Procedure, shortened: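 Multiplexed with ATP-based cell death, this channel scores GFP aggregates in PC12 cells expressing inducible HTTex1-Q103-GFP. Induction used 100 nM tebufenozide; compounds were tested in concentration series.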
On the % scale 0 is the no-effect control and ±100 the full control effect; potency means the concentration at half of the fitted maximal effect.

| SMILES | Potency | activity change, negative = inhibition |
| --- | --- | --- |
| C=CCN1C(=O)NC(=O)C(Cc2ccc(OC)c(OC)c2)C1=O (centres undefined) | inconclusive: 5.62 µM [inhibitor, single point] |  |
| CCC(=NCCc1c[nH]c2ccccc12)c1c(O)n(-c2ccc(C)cc2)c(=O)[nH]c1=O | inconclusive: 35.5 µM [inhibitor, single point] |  |
| CCC(C)NC(=O)c1c(N)n(Cc2ccc3c(c2)OCO3)c2nc3ccccc3nc12 (centres undefined) | inconclusive: 35.5 µM [inhibitor, partial curve] |  |
| O=C(N/N=C/c1c(O)n(C2CC2)c(=S)[nH]c1=O)c1ccccc1O | inconclusive: 35.5 µM [inhibitor, single point] |  |
| CCCCn1c(NC(=O)c2ccco2)c(C(=O)OCC)c2nc3ccccc3nc21 | inconclusive: 35.5 µM [inhibitor, single point] |  |
| CSc1nnc([C@@H](N)Cc2c[nH]c3ccccc23)o1 | inactive |  |
| CCCCCCC[n+]1ccc(-c2cc[n+](CCCCCCC)cc2)cc1 | inconclusive: 28.2 µM [inhibitor, single point] |  |
| COc1cc(/C=C/[N+](=O)[O-])ccc1O | active: 25.1 µM |  |
| CN1C(=O)NC(=O)/C(=C\C=C\c2ccccc2[N+](=O)[O-])C1=O | inconclusive: 35.5 µM [activator, single point] |  |
| CCOc1ccc(OCC)c(NC(=O)CN2CCN(c3ccc(C)cc3C)CC2)c1 | inconclusive: 11.2 µM [inhibitor, partial curve] |  |
| COc1cc(N)ccc1Cc1ccc(N)cc1OC | inconclusive: 2.24 µM [activator, partial curve] |  |
| COc1cc2c(cc1OC)-c1c(OC)c(OC)c(OC)c3ccnc(c13)C2=O | active: 11.2 µM |  |
| CC(C)COC(=O)c1ccccc1C(=O)OCC(C)C |  | inactive: 5.44% [at 9.22 µM] |
| CCCCCCN=C(CC)c1c(O)n(CCCC)c(=O)[nH]c1=O | inconclusive: 35.5 µM [inhibitor, single point] |  |
| Cc1ccccc1-n1c(-c2ccoc2)nc2ccccc2c1=O | inconclusive: 11.2 µM [inhibitor, single point] |  |
| NC(=O)c1ccc(C(=O)Nc2ccc([As](=O)(O)O)cc2)cc1 |  | inactive: -14.1% [at 9.22 µM] |
| C/C(=N\Nc1ccccc1)c1c(O)n(Cc2ccccc2)c(=O)[nH]c1=O | inactive |  |
| COc1cccc(-n2cnc3scc(-c4cccs4)c3c2=O)c1 | inconclusive: 7.08 µM [inhibitor, partial curve] |  |
| CC[n+]1c(SC)ccc2cc(OC)ccc21 | inconclusive: 7.94 µM [inhibitor, partial curve] |  |
| COc1ccc(C2=NCC(=S)Nc3ccc(Cl)cc32)cc1Cl |  | inactive: -4.29% [at 9.22 µM] |
| C=CCn1c(=O)c(C=Nc2cccnc2Cl)c(O)n(CCCC)c1=O | inconclusive: 3.16 µM [activator, single point] |  |
| COc1ccc(N=Cc2c(O)n(CC3CCCO3)c(=O)[nH]c2=O)cc1 (centres undefined) | inactive |  |

| SMILES | Potency | activity change, negative = inhibition |
| --- | --- | --- |
| CC(C)n1c(O)c(C2c3cc(Cl)ccc3Oc3[nH]c(=O)n(C(C)C)c(=O)c32)c(=O)[nH]c1=O (centres undefined) | inconclusive: 3.55 µM [inhibitor, single point] |  |
| CNCCc1c[nH]c2ccccc12 | inconclusive: 22.4 µM [activator, partial curve, poor fit] |  |
| O=P(Nc1cccc(Cl)c1)(Oc1ccccc1)Oc1ccccc1 | inconclusive: 28.2 µM [inhibitor, single point] |  |
| Nc1c(C(=O)NCCc2ccccc2)c2nc3ccccc3nc2n1CCN1CCOCC1 | inconclusive: 5.62 µM [activator, partial curve] |  |
| O=NN(CCCl)C(=O)NCCCl | inconclusive: 35.5 µM [inhibitor, single point] |  |
| CC(C)COP(=O)(c1ccc(N(C)C)cc1)C(Nc1ccccc1)c1ccccc1 (centres undefined) | inconclusive: 11.2 µM [inhibitor, partial curve] |  |
| O=P1(Oc2ccccc2)C[C@@H](O)[C@@H](O)[C@H](COCc2ccccc2)O1 (some centres undefined) |  | inactive: 6.59% [at 9.22 µM] |
| c1ccc(-c2cc(-c3ccccc3)[n+](-c3ccccc3)c(-c3ccccc3)c2)cc1 | active: 3.98 µM |  |
| NC(=O)c1ccc(N=Cc2c(O)n(Cc3ccco3)c(=O)[nH]c2=O)cc1 |  | inactive: -12.4% [at 9.22 µM] |
| O=C(Cc1ccc(Br)cc1)N1CCN(Cc2ccccc2)CC1 | inconclusive: 14.1 µM [inhibitor, single point] |  |
| Cc1cc(OC(=O)c2ccco2)c2c3c(c(=O)oc2c1)CCCC3 | active: 12.6 µM |  |
| Cc1noc(C(=O)Nc2sc3c(c2C#N)CCC3)c1Cl | inconclusive: 12.6 µM [inhibitor, single point] |  |
| O=C(O)c1ccccc1-c1c2cc(Br)c(=O)cc-2oc2[c]([Hg])c(O)c(Br)cc12 | active: 5.01 µM |  |
| COc1cccc(C2CC3C(=O)C=CC2N3Cc2ccccc2)c1 (centres undefined) | inconclusive: 35.5 µM [inhibitor, single point] |  |
| CC(C)CNC(=O)c1c(N)n(Cc2ccc3c(c2)OCO3)c2nc3ccccc3nc12 | inconclusive: 35.5 µM [inhibitor, single point] |  |
| NC(N)=NC(=O)c1nc(Cl)c(N)nc1N | inconclusive: 35.5 µM [inhibitor, single point] |  |
| O=[N+]([O-])c1ccc(N2CCNCC2)cc1NCC1CCCO1 (centres undefined) | inconclusive: 3.16 µM [activator, partial curve, poor fit] |  |
| Cc1c(C(=O)NCCC2=CCCCC2)oc2ccc(S(=O)(=O)N3CCC4(CC3)OCCO4)cc12 | inconclusive: 11.2 µM [inhibitor, single point] |  |
| C[C@H]1C[C@@H](C)C(=O)[C@@H]([C@H](O)CC2CC(=O)NC(=O)C2)C1 | active: 0.355 µM |  |
| Oc1cc[c]([Hg][Cl])cc1 | active: 2.51 µM |  |
| COc1ccc(OC)c(N2C(=O)NC(=O)/C(=C/c3ccc([N+](=O)[O-])s3)C2=O)c1 | inconclusive: 35.5 µM [inhibitor, single point] |  |
| Cn1nc(N)c2c1N=P(N1CCOCC1)(N1CCOCC1)N=C2c1ccccc1 | inconclusive: 0.282 µM [activator, full curve, poor fit] |  |

A few values from the results shown:
Entry of `O=C(O)c1ccccc1-c1c2cc(Br)c(=O)cc-2oc2[c]([Hg])c(O)c(Br)cc12` under Potency: active: 5.01 µM
Entry of `COc1ccc(OC)c(N2C(=O)NC(=O)/C(=C/c3ccc([N+](=O)[O-])s3)C2=O)c1` under Potency: inconclusive: 35.5 µM [inhibitor, single point]
Entry of `Cn1nc(N)c2c1N=P(N1CCOCC1)(N1CCOCC1)N=C2c1ccccc1` under Potency: inconclusive: 0.282 µM [activator, full curve, poor fit]
Entry of `NC(=O)c1ccc(N=Cc2c(O)n(Cc3ccco3)c(=O)[nH]c2=O)cc1` under activity change, negative = inhibition: inactive: -12.4% [at 9.22 µM]
Entry of `CC(C)CNC(=O)c1c(N)n(Cc2ccc3c(c2)OCO3)c2nc3ccccc3nc12` under Potency: inconclusive: 35.5 µM [inhibitor, single point]

Later entries

| SMILES | Potency | activity change, negative = inhibition |
| --- | --- | --- |
| [Hg+][c]1ccccc1 | active: 3.16 µM |  |
| O=[N+]([O-])c1ccc(NCc2ccccc2)c2nonc12 | inconclusive: 10 µM [inhibitor, partial curve] |  |
| COc1ccc(N/N=C/c2c(O)n(-c3cccc(C)c3)c(=O)[nH]c2=O)cc1 |  | inactive: 1.66% [at 9.22 µM] |
| CCCCOCCCn1c(N)c(C(=O)OCCOC)c2nc3ccccc3nc21 | active: 12.6 µM |  |
| C[C@H]1CC[C@@H]2[C@@H](C)[C@H]3[C@H](C[C@H]4[C@@H]5CC=C6CC(O[C@@H]7O[C@H](CO)[C@H](O)[C@H](O[C@@H]8O[C@H](CO)[C@@H](O)[C@H](O)[C@H]8O)[C@H]7O[C@H]7O[C@@H](C)[C@H](O)[C@@H](O)[C@H]7O)CC[C@]6(C)[C@H]5CC[C@]34C)N2C1 (some centres undefined) | active: 22.4 µM |  |
| CC(C)[N+](C)(CCC(C(N)=O)(c1ccccc1)c1ccccc1)C(C)C | inactive |  |
| O=C(O)CCn1cc(C=C2C(=O)NC(=O)NC2=O)c(-c2ccc(Br)cc2)n1 | inconclusive: 3.16 µM [inhibitor, single point] |  |
| CC(C)[C@H]1C(=O)O[C@H](C(C)C)C(=O)N(C)[C@@H](C(C)C)C(=O)O[C@H](C(C)C)C(=O)N(C)[C@@H](C(C)C)C(=O)O[C@H](C(C)C)C(=O)N1C | inconclusive: 3.98 µM [inhibitor, single point] |  |
| CN(C)c1ccc(/C=C/c2cc[n+](C)c3ccccc23)cc1 | inconclusive: 2.51 µM [inhibitor, single point] |  |
| CCOC(=O)c1ccc(N=Cc2c(O)n(-c3ccccc3F)c(=S)[nH]c2=O)cc1 | inconclusive: 31.6 µM [activator, single point] |  |
| CCOC(=O)c1ccc(NC(=O)c2c(O)[nH]c(=O)[nH]c2=O)cc1 | active: 3.55 µM |  |
| Cn1cccc1/C=C1/C(=O)NC(=O)N(C(C)(C)C)C1=O |  | inactive: -20.1% [at 9.22 µM] |
| Nc1ccc(C2(c3ccc(N)cc3)c3ccccc3-c3ccccc32)cc1 | inactive |  |
| CCc1ccccc1N1C(=O)/C(=C/c2ccc(N3CCN(C)CC3)o2)C(=O)NC1=S | inconclusive: 25.1 µM [activator, single point] |  |
| CC(C)CCOC(=O)c1c(N)n(CC2CCCO2)c2nc3ccccc3nc12 (centres undefined) | inconclusive: 35.5 µM [inhibitor, single point] |  |
| CC1N(C)c2cc(NC(=O)c3ccco3)c(P(=O)(Nc3ccc([N+](=O)[O-])cc3)N3CCOCC3)cc2C1(C)C (centres undefined) | inconclusive: 35.5 µM [inhibitor, single point] |  |
| CCOc1ccc(/C=C2/C(=O)NC(=O)N(CCc3ccc(F)cc3)C2=O)cc1 | inactive |  |
| C=C1C(=O)O[C@@H]2C[C@@H](C)[C@@H]3C4OC4C(=O)[C@@]3(C)[C@@H](O)[C@H]12 (some centres undefined) | inconclusive: 5.62 µM [inhibitor, single point] |  |
| CC(=O)OC(C)(C)/C=C/C(=O)[C@](C)(O)[C@H]1[C@H](O)C[C@@]2(C)[C@@H]3CC=C4[C@H](C[C@H](O)C(=O)C4(C)C)[C@]3(C)C(=O)C[C@]12C | inconclusive: 22.4 µM [inhibitor, single point] |  |
| COc1ccc(Cn2c(O)c(C=NCCN3CCOCC3)c(=O)[nH]c2=O)cc1 | inconclusive: 25.1 µM [inhibitor, single point] |  |

Reference: PubChem BioAssay AID1688 (National Center for Advancing Translational Sciences (NCATS), 2009)
